Experimental data: doi:10.1101/2025.05.23.655772

Protein sequences, listed by entry. Tags and fused reporters are not part of them. Lines headed by an entry give the natural chain unless they say otherwise; changes in a name come on top.
UniProt P45974: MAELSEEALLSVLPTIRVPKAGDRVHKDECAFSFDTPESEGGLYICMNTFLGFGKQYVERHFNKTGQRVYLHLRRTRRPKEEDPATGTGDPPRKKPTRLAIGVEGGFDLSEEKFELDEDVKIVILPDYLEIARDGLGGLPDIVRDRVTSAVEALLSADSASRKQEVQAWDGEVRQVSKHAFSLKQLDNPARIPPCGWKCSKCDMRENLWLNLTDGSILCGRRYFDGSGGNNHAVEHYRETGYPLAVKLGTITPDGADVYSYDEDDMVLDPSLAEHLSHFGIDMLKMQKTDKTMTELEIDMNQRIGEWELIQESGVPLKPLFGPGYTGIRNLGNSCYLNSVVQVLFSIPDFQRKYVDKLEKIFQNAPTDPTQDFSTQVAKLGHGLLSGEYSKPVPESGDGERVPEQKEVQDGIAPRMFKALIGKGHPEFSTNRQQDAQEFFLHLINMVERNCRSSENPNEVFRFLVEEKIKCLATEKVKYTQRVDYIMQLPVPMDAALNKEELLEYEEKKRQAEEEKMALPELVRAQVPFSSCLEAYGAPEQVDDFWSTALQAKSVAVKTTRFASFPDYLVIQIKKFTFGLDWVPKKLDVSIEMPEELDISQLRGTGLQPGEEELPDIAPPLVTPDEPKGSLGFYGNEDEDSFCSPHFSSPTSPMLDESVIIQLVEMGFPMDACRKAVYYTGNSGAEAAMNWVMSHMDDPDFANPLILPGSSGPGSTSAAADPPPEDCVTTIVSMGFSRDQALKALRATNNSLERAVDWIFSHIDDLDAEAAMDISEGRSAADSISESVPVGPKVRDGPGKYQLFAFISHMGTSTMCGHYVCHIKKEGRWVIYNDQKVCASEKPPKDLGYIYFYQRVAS
UniProt Q6IQ49: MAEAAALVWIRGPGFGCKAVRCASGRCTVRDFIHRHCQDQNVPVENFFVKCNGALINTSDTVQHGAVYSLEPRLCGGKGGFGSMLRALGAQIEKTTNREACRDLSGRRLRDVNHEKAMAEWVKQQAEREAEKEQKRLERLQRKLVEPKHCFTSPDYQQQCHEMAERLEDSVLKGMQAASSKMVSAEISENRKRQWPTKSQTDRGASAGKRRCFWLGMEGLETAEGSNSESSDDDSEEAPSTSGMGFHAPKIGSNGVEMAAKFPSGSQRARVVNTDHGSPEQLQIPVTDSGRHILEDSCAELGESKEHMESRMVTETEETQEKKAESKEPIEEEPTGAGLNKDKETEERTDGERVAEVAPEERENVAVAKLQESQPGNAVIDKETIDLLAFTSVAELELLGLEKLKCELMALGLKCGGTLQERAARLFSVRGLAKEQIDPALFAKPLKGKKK

Target: catalytically inactive USP5 C335A (human) (UniProt P45974)
Experiment: ITC

With “full-length SDE2, SDE2FL(1-451) (from UniProt Q6IQ49)” the binding was “binds weakly”.

No constants are given. Whether binding was seen depends on the method and setting. Binding can be weak; no strength is given.
